Paper PMC10177590, “Canine Intestinal Organoids as a Novel In Vitro Model of Intestinal Drug Permeability: A Proof-of-Concept Study” (Cells, 2023)
Where two headings read alike, the source gives them in different places.

Experiments:
[1] = system: canine-colonoid-derived monolayers; experiment: Bidirectional transport (Papp) across canine-colonoid-derived monolayers; format: in vitro ADME, dog; details: for Papp × 10^−6: Dog colonoid
Protocol: After seven days of culture (Figure 3A), the 3D colonoids were harvested from the Matrigel® using the Corning™ cell recovery solution. Matrigel® plugs were dissociated by repeated pipetting after adding 500 μL of pre-chilled cell recovery solution into each well, and the plate was incubated for 30 min at 4 °C to dissolve the Matrigel®. The mixture was then transferred to a 15 mL tube and centrifuged at 100× g for 5 min at 4 °C. The organoid pellet was resuspended in 1 mL TrypLE Express and incubated at 37 °C for 10 min with shaking. To stop the TrypLE action, 6 mL of DMEM/F12 was added to the mixture before centrifugation at 100× g for 5 min at 4 °C. The supernatant was removed, and the pellet was resuspended with CMGF+ media. The harvested colonoid cell suspension was filtered through a sterile cell strainer (40 µm nylon mesh, Thermo Fisher Scientific) to obtain a single-cell suspension. The viability of dissociated cells was assessed by the trypan blue exclusion test, and cells were counted manually using a hemocytometer (Hausser Scientific, Horsham, PA, USA). The Transwell™ inserts were pre-coated with Matrigel® (100 μg/mL; Corning®) and rat tail collagen I (30 μg/mL; Fisher Scientific) to promote adhesion, growth, and differentiation in CMGF+ media at 37 °C for 1 h. Dissociated colonoid cells (Passages #15–20) were seeded at a density of 100,000 cells/cm^2 in pre-coated inserts and allowed to grow and differentiate in the presence of CMGF+ media for 10 to 12 days before the experiments (Figure 3B). The CMGF+ culture medium was changed every other day. The structural integrity of the cell monolayer was monitored every other day for up to two weeks by phase-contrast microscopy. Colonoid-derived monolayers and colonoids were fixed and processed for histology and/or TEM, as described in prior studies. All transport experiments were conducted at room temperature following the conditions outlined in earlier reports during sampling and incubation. The culture media were aspirated from both AP (0.2 mL) and BL (0.7 mL) chambers. For both the canine colonoid and the Caco-2 monolayer, the BL chambers with HBSS buffer at pH 7.4 (0.7 mL) and the AP chambers with appropriate HBSS buffer at pH 6.8 or 7.4 (0.2 mL) (canine) or pH 6.8 (0.2 mL) (Caco-2 cells) were rinsed and equilibrated at room temperature for 30 min. Two to three wells per drug/pH/direction were used for data generation. […] HBSS buffer with pH 7.4 was added to the BL chambers. […] For the AP side, drug concentrations of the donor solution were measured prior to introduction into the well and at the end of the study (120 min). In so doing, no buffer replacement was needed. All study samples were labeled and stored at −80 °C until further analysis. The same procedures described above for studying AP→BL permeability were followed when studying BL→AP, with the only difference being that the donor chamber was now the BL side and the receiver chamber was now the AP side. […] The collected samples were stored at −80 °C until further analysis by mass spectrometry (details below). […] The estimated concentrations in the receiver compartment were corrected for drug removed during prior samples. […] These Papp value estimates were further corrected for the percent recovery (Rec (%)) in each well [71, 72] as follows (Equation (3)): […]

[2] = Bidirectional transport (Papp) across Caco-2 cell monolayers; format: in vitro ADME, human; details: human, Caco-2, pH 6.8, 2 mg/mL (7509 μM)
Caco-2 cell monolayers = experiment: as above; format: in vitro ADME, human
P-gp = details: cited from earlier work

Structure (SMILES): CC(C)NCC(O)COc1ccc(CC(N)=O)cc1 (stereo not drawn) [Atenolol]
- Papp × 10^−6 ([1]; 0.2 mg/mL (750.9 μM), AP→BL pH 6.8/7.4, individual wells): BLQ
- Papp × 10^−6 ([1]; 0.2 mg/mL (750.9 μM), AP→BL pH 7.4/7.4, individual wells): BLQ
- Papp × 10^−6 ([1]; 0.2 mg/mL (750.9 μM), BL→AP pH 7.4/7.4, individual wells): BLQ
- transport across the monolayer ([1]; 0.2 mg/mL, either direction, canine colonoid): not quantifiable
- Papp × 10^−6 ([1]; 2 mg/mL (7509 μM), AP→BL pH 6.8/7.4, individual wells): BLQ
- Papp × 10^−6 ([1]; 2 mg/mL (7509 μM), AP→BL pH 7.4/7.4, individual wells): BLQ
- Papp × 10^−6 ([1]; 2 mg/mL (7509 μM), BL→AP pH 7.4/7.4, individual wells): BLQ
- Papp A→B at 120 min, 2 mg/mL ([2]; Human Caco-2, AP→BL pH 6.8/7.4, N = 2, read-out: Papp × 10^−6 Avg): 7.63 ×10⁻⁶ cm/s
- Papp A→B at 120 min, 2 mg/mL ([2]; Human Caco-2, AP→BL pH 6.8/7.4, individual wells, read-out: Papp × 10^−6): 7.25 ×10⁻⁶ cm/s
- Papp × 10^−6 (Caco-2 cell monolayers; 0.2 mg/mL (750.9 μM), Human Caco-2, AP→BL pH 6.8/7.4, individual wells): BLQ
- Papp × 10^−6 (Caco-2 cell monolayers; 0.2 mg/mL (750.9 μM), Human Caco-2, BL→AP pH 7.4/7.4, individual wells): BLQ
- transport across the monolayer (Caco-2 cell monolayers; 0.2 mg/mL, either direction, Caco-2 monolayer): not quantifiable
- Papp × 10^−6 (Caco-2 cell monolayers; 2 mg/mL (7509 μM), Human Caco-2, AP→BL pH 6.8/7.4, individual wells): 8.01 × 10^−6 cm/s
- Papp × 10^−6 (Caco-2 cell monolayers; 2 mg/mL (7509 μM), Human Caco-2, BL→AP pH 7.4/7.4, individual wells): 4.97 × 10^−6 cm/s
- P-gp substrate status (P-gp): substrate for P-gp
